# At least one peptide structure holds a part that was inferred or is arguable (an end, a ring closure or a residue). Where a SMILES comes first, the peptide text is derived from it. The star is where a group is joined. Adamantane1carbonyl = O=C(C12CC3CC(CC(C3)C1)C2)*
# Experiments:
# BHK-21 cells [1] = test: Luciferase transfection of BHK-21 cells with GALA / GALA-Ad modified compositions (Example 34); assay type: cell-based; conditions: for effect of peptide addition on transfection efficiency: 12/pGL-CV3 5+/−, various peptide/cyclodextrin ratios
# [2] = Hydrodynamic diameter of GALA / GALA-Ad modified compositions by dynamic light scattering (Example 30); assay type: physicochemical; conditions: 12/pGL3-CV 5+/−
# [3] = Zeta potential of GALA / GALA-Ad modified complexes (Example 32); assay type: physicochemical; conditions: 12/pGL3-CV 5+/−
# BHK-21 cells [4] = test: FITC-Oligo uptake by BHK-21 cells, FACS (Example 31); assay type: cell-based; conditions: 50% GALA-Ad added to 12/FITC-Oligo
# HUH-7 cells = test: FITC-Oligo uptake by HUH-7 cells, FACS (Example 33); assay type: cell-based; conditions: 50% GALA-Ad added to 12/FITC-Oligo
SMILES,effect of peptide addition on transfection efficiency (BHK-21 cells [1]),hydrodynamic diameter ([2]; 1% peptide added) [mm],hydrodynamic diameter ([2]; 10% peptide added) [mm],hydrodynamic diameter ([2]; 30% or more GALA-Ad),zeta potential ([3]; 30% peptide) [mV],zeta potential ([3]; 150% peptide) [mV],inhibition of FITC-Oligo uptake (BHK-21 cells [4]),inhibition of FITC-Oligo uptake (HUH-7 cells),increase of transfection (BHK-21 cells [1]; 12/pGL-CV3 + 1% GALA),luciferase activity (BHK-21 cells [1]; 12/pGL-CV3 + 1% GALA),decrease of transfection (BHK-21 cells [1]; 12/pGL-CV3 + 100% GALA) [%],luciferase activity (BHK-21 cells [1]; 12/pGL-CV3 + 100% GALA),hydrodynamic diameter ([2]; 50% or more GALA)
CC(C)C[C@H](NC(=O)[C@H](C)NC(=O)[C@H](CCC(=O)O)NC(=O)[C@H](CC(C)C)NC(=O)[C@H](C)NC(=O)[C@H](CCC(=O)O)NC(=O)[C@H](C)NC(=O)[C@H](CC(C)C)NC(=O)[C@H](C)NC(=O)[C@H](CCC(=O)O)NC(=O)[C@H](C)NC(=O)[C@H](CC(C)C)NC(=O)[C@H](Cc1c[nH]cn1)NC(=O)[C@H](CCC(=O)O)NC(=O)[C@H](C)NC(=O)[C@H](CC(C)C)NC(=O)[C@H](C)NC(=O)[C@H](CCC(=O)O)NC(=O)[C@H](C)NC(=O)[C@H](CC(C)C)NC(=O)[C@H](C)NC(=O)[C@H](CCC(=O)O)NC(=O)[C@H](C)NC(=O)[C@H](CC(C)C)NC(=O)[C@H](C)NC(=O)[C@H](C)NC(=O)[C@H](CCC(=O)O)NC(=O)[C@H](Cc1c[nH]c2ccccc12)NC(=O)C12CC3CC(CC(C3)C1)C2)C(=O)N[C@@H](C)C(=O)N[C@@H](C)C(=O)O [GALA-Ad] (Adamantane1carbonyl-WEAALAEALAEALAEHLAEALAEALEALAA-OH),greatly inhibited transfection,250,400,around 250 nm,−23,−42,two orders of magnitude,two orders of magnitude,,,,,
"CC(C)C[C@H](NC(=O)[C@H](C)NC(=O)[C@H](CCC(=O)O)NC(=O)[C@H](CC(C)C)NC(=O)[C@H](C)NC(=O)[C@H](CCC(=O)O)NC(=O)[C@H](C)NC(=O)[C@H](CC(C)C)NC(=O)[C@H](C)NC(=O)[C@H](CCC(=O)O)NC(=O)[C@H](C)NC(=O)[C@H](CC(C)C)NC(=O)[C@H](Cc1c[nH]cn1)NC(=O)[C@H](CCC(=O)O)NC(=O)[C@H](C)NC(=O)[C@H](CC(C)C)NC(=O)[C@H](C)NC(=O)[C@H](CCC(=O)O)NC(=O)[C@H](C)NC(=O)[C@H](CC(C)C)NC(=O)[C@H](C)NC(=O)[C@H](CCC(=O)O)NC(=O)[C@H](C)NC(=O)[C@H](CC(C)C)NC(=O)[C@H](C)NC(=O)[C@H](C)NC(=O)[C@H](CCC(=O)O)NC(=O)[C@@H](N)Cc1c[nH]c2ccccc12)C(=O)N[C@@H](C)C(=O)N[C@@H](C)C(=O)O [GALA, WEAALAEALAEALAEHLAEALAEALEALAA, reference compound] (H-WEAALAEALAEALAEHLAEALAEALEALAA-OH)",did not have a large effect on transfection efficiency,250,400,,−11,−15,,,two-fold,2×10^5 RLU,50,5×10^4 RLU,around 250 nm

# — patent US8092833B2, “Compositions containing inclusion complexes” (California Institute of Technology, priority 2000, dated 2012)
